# Laboratory results from PMC12056667 (Chemical Science, 2025).
# By UniProt entry, the sequences of proteins in these tests, tags left out.
# UniProt A0A3T0V9Y5, entry or part of it: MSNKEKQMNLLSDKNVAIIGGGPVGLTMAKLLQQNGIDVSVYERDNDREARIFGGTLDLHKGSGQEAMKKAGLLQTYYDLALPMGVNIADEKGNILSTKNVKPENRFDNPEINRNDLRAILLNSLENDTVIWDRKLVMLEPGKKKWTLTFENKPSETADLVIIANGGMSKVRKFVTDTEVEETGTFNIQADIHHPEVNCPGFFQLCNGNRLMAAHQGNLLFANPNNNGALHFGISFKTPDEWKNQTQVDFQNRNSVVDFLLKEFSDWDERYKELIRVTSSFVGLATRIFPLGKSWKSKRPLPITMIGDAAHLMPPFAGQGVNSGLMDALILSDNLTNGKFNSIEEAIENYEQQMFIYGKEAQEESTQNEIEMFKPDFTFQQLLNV
# Tests used:
# Tet(X4) [1] = biological target: T1, Tet(X4) (Escherichia coli, UniProt A0A3T0V9Y5); experiment: FP competitive displacement of probe 6; format: binding; conditions: IC50app, Tet(X4) (Polarization), 25 nM 6, 40 nM Tet(X4), 5 mM MgCl2, 1 μM FAD, 100 mM Tris pH 7.0, 0.01% Triton X-100
# Description: A 2× solution containing 80 nM Tet(X4), 2 μM FAD and 10 mM MgCl2 in the assay buffer was dispensed into the first 22 columns of a 384-well black, non-binding microtiter plate (Greiner Bio-One), 12.5 μL per well, using a microplate reagent dispenser. A solution of 2 μM FAD and 10 mM MgCl2 in the assay buffer was dispensed into the remaining columns to serve as a no enzyme control. A 3-fold, 10-point dilution series of substrates and inhibitors was made in DMSO in a V-bottom 96-well plate (Greiner Bio-One) with a highest concentration of 5 mM or 0.5 mM. Into one column was added DMSO with no inhibitor or substrate, to serve as a positive control. Tigecycline was included as a reference on every plate to ensure reproducibility. […] Normalised % response was plotted as a function of log10([Inhibitor]), and the IC50^app was determined by fitting the data to the equation: Y = Bottom + (top-bottom)/(1 + 10^Log(IC50) − X) × HillSlope in GraphPad Prism 9.4.1, where Y = % response and X = log10([Inhibitor]). Wells with unusual fluorescence intensities were manually identified and removed from the analysis.
# […] One technical replicate was performed for each compound; hits identified were retested; the purities of the hit compounds were determined to be >80% by LC-MS analysis.
# Tet(X4) [2] = biological target: T1, Tet(X4); experiment: biochemical; conditions: IC50, UPLC assay
# From the text: We then tested the binding of reported type 1 TDase inhibitors to Tet(X4) (Fig. 3f, ESI Fig. S17 ^†).[33,38,39] […] These compounds gave similar apparent IC50^app values, in accord with trends in IC50 measurements performed by Markley et al.[33] […] We also developed a complementary endpoint activity assay where the turnover of tigecycline by Tet(X4) in a 96-well plate was quenched by addition of 1%v/v formic acid and analysed chromatographically. The peak integrals of tigecycline and its hydroxylated degradation product at 254 nm following UPLC analysis were measured to determine turnover (Fig. 5a). As this method separates components by chromatography, it enables IC50 measurements independent of potential interference from UV-active inhibitors (Fig. 5b). […]
# […] Samples were analysed using an ACQUITY H-Class PLUS UPLC instrument (Waters) equipped with a pre-equilibrated ACQUITY BEH C18 column ([…], […], Waters) using a gradient of 1–50%v/v acetonitrile with 0.1%v/v formic acid in water with 0.1%v/v formic acid over 1.83 minutes at a flow rate of 0.5 mL min^−1. […] The normalised % response was plotted as a function of log10[Inhibitor], and the IC50 determined as described above.
compound,measurement,setting,value
CN1CCN(CCCN2c3ccccc3Sc3ccc(Cl)cc32)CC1 [Prochlorperazine],IC50,Tet(X4) [1],39.9 ± 7 µM
same,IC50,Tet(X4) [2],49.5 ± 24.9 µM
